Measured values as given in PMC11573613.
Results are given in words; binding and its absence hold for the method and conditions named. In cells and extracts the contact can be indirect. Some entries that bind do so weakly or less than the wild type.

By UniProt entry, the sequences of proteins in these tests, tags left out. Residues count along the entry.
UniProt Q49AH0, residues 25-187: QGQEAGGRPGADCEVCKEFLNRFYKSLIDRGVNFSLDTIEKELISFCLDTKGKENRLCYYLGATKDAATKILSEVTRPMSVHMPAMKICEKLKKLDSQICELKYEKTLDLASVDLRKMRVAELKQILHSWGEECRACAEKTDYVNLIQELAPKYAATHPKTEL
UniProt P11021, residues 19-654: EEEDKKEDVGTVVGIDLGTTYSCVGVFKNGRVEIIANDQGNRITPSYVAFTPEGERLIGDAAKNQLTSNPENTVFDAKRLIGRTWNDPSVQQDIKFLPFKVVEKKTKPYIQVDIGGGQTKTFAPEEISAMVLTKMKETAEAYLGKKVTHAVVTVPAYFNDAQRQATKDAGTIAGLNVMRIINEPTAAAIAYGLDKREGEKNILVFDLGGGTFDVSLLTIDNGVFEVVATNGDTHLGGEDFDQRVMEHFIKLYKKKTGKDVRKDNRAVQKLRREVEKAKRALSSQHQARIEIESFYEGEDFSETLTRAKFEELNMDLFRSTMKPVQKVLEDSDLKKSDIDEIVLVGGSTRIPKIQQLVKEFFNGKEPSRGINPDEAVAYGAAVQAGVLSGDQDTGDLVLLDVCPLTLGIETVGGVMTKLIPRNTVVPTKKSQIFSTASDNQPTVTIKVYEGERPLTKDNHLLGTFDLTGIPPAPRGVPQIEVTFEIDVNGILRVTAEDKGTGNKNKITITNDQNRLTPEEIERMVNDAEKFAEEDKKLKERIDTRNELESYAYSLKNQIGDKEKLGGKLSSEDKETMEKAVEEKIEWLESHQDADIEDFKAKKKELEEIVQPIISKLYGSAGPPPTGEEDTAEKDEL
UniProt P61224: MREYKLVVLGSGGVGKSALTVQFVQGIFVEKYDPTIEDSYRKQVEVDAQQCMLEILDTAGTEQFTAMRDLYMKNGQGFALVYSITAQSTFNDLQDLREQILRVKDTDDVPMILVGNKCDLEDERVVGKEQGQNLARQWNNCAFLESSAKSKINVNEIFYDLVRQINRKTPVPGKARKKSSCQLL

Molecular target: Recombinant human cerebral dopamine neurotrophic factor (CDNF) (human) (UniProt Q49AH0)
Test: co-IP; lysates (2.4 mg) of human washed platelets treated with AA and CDNF; rabbit monoclonal anti-human CDNF antibody (4.8 μg) or IgG at 4°C overnight, protein A/G beads; western blot

binding	Substance
binds	GRP78 (Bip) (from UniProt P11021 19-654)
binds	Ras-related protein 1b (Rap1b) (from UniProt P61224 1-184)
